One substance from article PMC9300154 can be followed below.

The chains behind the UniProt entries cited, without tags or fusion partners.
UniProt Q16665: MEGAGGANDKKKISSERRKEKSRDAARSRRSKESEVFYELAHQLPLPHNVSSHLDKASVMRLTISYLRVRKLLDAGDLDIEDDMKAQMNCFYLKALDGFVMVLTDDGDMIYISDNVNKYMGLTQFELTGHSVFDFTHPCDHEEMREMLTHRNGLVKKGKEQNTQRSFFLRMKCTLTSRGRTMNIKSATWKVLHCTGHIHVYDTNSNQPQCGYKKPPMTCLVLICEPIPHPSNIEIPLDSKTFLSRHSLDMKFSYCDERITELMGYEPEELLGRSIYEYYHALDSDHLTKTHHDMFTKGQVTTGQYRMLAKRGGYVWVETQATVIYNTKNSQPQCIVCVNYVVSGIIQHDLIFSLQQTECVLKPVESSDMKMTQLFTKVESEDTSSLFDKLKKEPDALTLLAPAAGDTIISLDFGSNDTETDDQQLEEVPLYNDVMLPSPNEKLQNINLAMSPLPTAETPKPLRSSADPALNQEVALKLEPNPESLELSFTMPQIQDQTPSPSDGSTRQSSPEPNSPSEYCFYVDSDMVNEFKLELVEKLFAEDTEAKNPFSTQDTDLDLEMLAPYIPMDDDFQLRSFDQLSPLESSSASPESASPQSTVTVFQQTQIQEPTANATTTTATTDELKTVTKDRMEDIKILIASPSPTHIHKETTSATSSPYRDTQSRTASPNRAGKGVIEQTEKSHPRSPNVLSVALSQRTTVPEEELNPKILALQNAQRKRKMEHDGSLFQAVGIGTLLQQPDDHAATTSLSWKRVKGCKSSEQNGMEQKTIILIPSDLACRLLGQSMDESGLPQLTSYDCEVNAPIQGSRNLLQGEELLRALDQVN

In the experiment the target is T1, spliced form of X-Box Binding Protein 1 (human (endogenous in human astrocytes and GBM tumour cells)) (UniProt P17861).
T1 sequence: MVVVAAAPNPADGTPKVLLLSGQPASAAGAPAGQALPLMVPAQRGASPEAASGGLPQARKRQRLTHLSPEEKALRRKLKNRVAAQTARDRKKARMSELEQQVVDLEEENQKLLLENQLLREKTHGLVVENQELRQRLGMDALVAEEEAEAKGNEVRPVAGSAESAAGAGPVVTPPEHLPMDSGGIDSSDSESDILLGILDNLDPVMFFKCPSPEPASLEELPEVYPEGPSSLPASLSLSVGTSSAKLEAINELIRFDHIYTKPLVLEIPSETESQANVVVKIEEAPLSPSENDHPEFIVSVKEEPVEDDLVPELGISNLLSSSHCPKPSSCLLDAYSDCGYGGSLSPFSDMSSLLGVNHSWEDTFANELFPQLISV
As to the kind of experiment: proximity ligation; in situ proximity ligation assay in human/mouse astrocytes and GBM tumour cells depleted of the sXBP1 targets SREBP2/ACSS2.

Results are given in words; binding and its absence hold for the method and conditions named. In cells and extracts the contact can be indirect. Some results given as binding are weak or reduced against the parent protein; the word gives no strength.

Regarding HIF1α (from UniProt Q16665 1-826), the binding entry is “binds”.
